# Article PMC9486168, “Protein-protein interaction-based high throughput screening for adenylyl cyclase 1 inhibitors: Design, implementation, and discovery of a novel chemotype” (Frontiers in Pharmacology, 2022)
# Tests used:
# AC8-C2b/CaM = target: T1, AC8-C2b/CaM (Homo sapiens, UniProt P0DP23); test: AC8-C2b/CaM FP counterscreen assay; type: binding;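 further: fluorescence polarization of AC peptide binding to GST-CaM in HEPES buffer with KCl and 50 µM CaCl2, compound preincubated 30 min with GST-CaM, DMSO and calmidazolium as controls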
# T1 construct: made in house; host or cells: E. coli BL21-CodonPlus (DE3)-RIPL
# AC1-C1b/CaM = target: T2, AC1-C1b/CaM (Homo sapiens, UniProt P0DP23); test: AC1-C1b/CaM fluorescence polarization (FP) assay; type: binding
# T2 construct: made in house; host or cells: E. coli BL21-CodonPlus (DE3)-RIPL
# AC8-Nt/CaM = target: T3, AC8-Nt/CaM (Homo sapiens, UniProt P0DP23); test: AC8-Nt/CaM FP counterscreen assay; type: binding;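 further: fluorescence polarization of AC peptide binding GST-CaM in HEPES buffer with CaCl2, compound preincubated with CaM 30 min, peptide read after 2 h at room temperature in dark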
# T3 construct: made in house; host or cells: E. coli BL21-CodonPlus (DE3)-RIPL
# [1] = CellTiter-Glo 2.0 cell viability assay; type: cell-based; conditions: human, HEK293T cells, pH 7.4; at the compound's AC1/CaM NanoBiT IC50 concentration; read-out: % Viable Cells at AC1 IC50;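 further: luminescence read-out after 30 min compound exposure at 37 °C in HEPES-buffered HBSS, scaled to vehicle-treated cells as 100% and cell-free buffer wells as 0%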
# Protocol: Cell viability measurements were performed using a BioTek Synergy 2 plate reader luminescence mode. HEK293T cells were cultured in Gibco DMEM supplemented with 10% FBS (Gibco) and 1% Penicillin/Streptomycin at 37°C and 5% CO2. Cells were plated at 25,000 cells/well in 96-well half area plates (Corning #3885) coated with poly-d-lysine and allowed to incubate for 40–44 h. On the day of the assay, culture media was aspirated and replaced with 25 μl of 2X compound in HBSS supplemented with 20 mM HEPES pH 7.4 or 2X vehicle (HBSS supplement with 20 mM HEPES pH 7.4). After adding the compound or vehicle, the plate was incubated at 37°C for 30 min. Next, 25 μl of 2X CellTiter-Glo 2.0 reagent (Promega, Madison, WI) was added, and the plate was mixed on an orbital shaker for 30 min to induce cell lysis and equilibrate the plate to room temperature. Luminescence was then measured for 30 min to establish a stable signal. The final three luminescence values from the 30-min read were averaged and used to assess cell viability. Cell viability for tested compounds was normalized relative to vehicle (100%) and wells containing buffer with no cells (0%). Data represent the mean of three independent experiments (N = 3) ± SEM.
# AC8/CaM PPI = target: T4, AC8/CaM PPI (Homo sapiens, UniProt P0DP23); test: AC8/CaM NanoBiT assay in HEK293T cells; type: cell-based, rat; conditions: thapsigargin-stimulated, AUC, read-out: Nanobit: AC8-CaM IC50 (μM ± SEM)
# T4 construct: confirmed as an AC1/AC8 non-selective hit against full-length AC1- and AC8-CaM in the NanoBiT assay; The hCaM residues 1–149, residues 1–1,248 of rat AC8 (rAC8); expressed in transfected cells; host or cells: HEK293T, transient transfection
smiles,measurement,setting,value
"CCCCCCCCCCCCCCCC[n+]1ccccc1 [Compound 10, Cetylpyridinium Cl]",Ki,AC8-C2b/CaM,5.5 µM
same,Ki,AC1-C1b/CaM,5.6 µM
same,IC50,"AC1-C1b/CaM; AC1-CaM FP IC50, μM (95% CI), 100 nM AC1-C1b, 100 nM GST-CaM, 95% CI in brackets",23.4 µM
same,AC1-CaM FP % inhib,"AC1-C1b/CaM; relative to 100 μM CDZ (100% inhibition), highest concentration tested",25%
same,Ki,AC8-Nt/CaM,5.7 µM
same,viability at 30 min,[1],96%
same,IC50,AC8/CaM PPI,14.4 ± 1.29 µM
